We go through 107 sequences from PubChem BioAssay AID1508600 (Functional Genomics Laboratory (NCATS/FGL), 2020).

About 3,700 (7%) of roughly 53,000 sequences were called active.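 The calls were made as follows: active = gene knockdowns whose robust z-score for IL-1 alpha signal is at least 2 or at most -2, so actives lie on both sides; inactive = the rest.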 This is one part of the list.

The experiment in a line: Components of the Cytosolic LPS Sensing Pathway: Gene Identification via Genome-wide siRNA Screen.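 Also: robust z of the log signal after scaling to non-targeting control siRNA wells of the plate.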 To be noted: RAW264.7 macrophages, IL-1a HTRF, actives lie on both sides, screened at 100 nM (by protocol), cells primed 5 h with Pam3CSK4 first. In a few lines:
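Read-out: IL-1a HTRF on supernatant, divided by plate negative-control median ×100, log-transformed and converted to robust z-score. Cells were RAW264.7 given 100 nM siRNA, Pam3CSK4-primed 5 hours, then LipidA-transfected 24 hour.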
Background: Time-resolved FRET reads energy transfer from a long-lived donor to a nearby acceptor.
In the case of GCGUGUAGGAAUAAUACCUTT against Psmc6, the z-score was active: -2.66. The figure for CCAUAUGUCCUGUUUAAGATT against Grik2 is inactive: 0.304.

GCCUCAAGCCUACCAUGUUTT against Fadd: the z-score was inactive: -0.344. With GGAUUUUUUUUCUUGUUGCTT against Fam160a1, the z-score was inactive: 0.497. Then GGACAUCCAGUAUUUUGUGTT against Pstpip2, with inactive: -0.784.

GGGCUGUCAUUAUAGUCCATT against Unc93a: the z-score is inactive: -0.378.

Take GGUGUCUGUUUGCCAUCUUTT against Adam39: the z-score was inactive: -0.639.

With GGAGAAACUUCAACUCUUATT against Resp18, the z-score is inactive: -0.396.

Turning to GGAAAUGCCAGGAUGGAUCTT against AF366264, the z-score is inactive: 0.519.

As for GGAUCUCAUAAAGGAGGCUTT against Prkg1, the z-score was inactive: -0.638. The figure for CCAGAGCUAAAAGAAAAGATT against Elovl6 is inactive: 1.02; for GGGAAUGUUGACUUGUGUUTT against Itfg2 it is inactive: -0.176. GGGCUGAUAAUGUUAGCUCTT against Olfr161: the z-score was inactive: 0.48. Regarding CGUGAACUAUGAUUGGAUATT against Gbe1, the z-score is inactive: 0.382. Then GCCAAGUACUCGUUUCCACTT against Wtap, with inactive: 0.826; and CCGGUCAAAAUUGAAAAGGTT against Bves, with inactive: 0.666. The figure for GCGUGUCCCUUCAGUUUGUTT against Zscan12 is inactive: 1.83. As for GGAAACCUAUGAGAAUAUCTT against Ipo5, the z-score was inactive: -0.281. The figure for “GGGAACCUUUUCUAAGUUCTT against 9230112E08Rik” is inactive: 0.518; for CGCAUAUCAGCAGUGUAGATT against Slc26a11 it is inactive: -0.63; for GGAAAUUACCCAAUAUGUATT against Naip2 it is inactive: 0.25. The figure for GGAGAAGCAGAAGAUGUAUTT against Stk11 is inactive: -0.113; for GCCAGAAACUAAUGAGAUCTT against Tmem38a it is inactive: 1.59; for CCAUGGACCCUUUUUUUGGTT against Plekhh3 it is inactive: 0.301. As to CCCUAAGCUCUGUUCCCAGTT against Olfr371, the z-score was inactive: -0.561. Then GGAGCUGGUCAAGAACUACTT against Chrna7, with inactive: 1.38; and “GGCCUUAGGAAUCAAGUUGTT against 9530053A07Rik”, with inactive: 1.24; and “GCAUGAAGUUAGUAAUGCUTT against C230029F24Rik”, with inactive: 0.107. With GCAUGAAUCGUGCGAAGAUTT against Zfp871, the z-score is inactive: 0.903. With GGGAGACAUUCAUUAUCAGTT against Slc32a1, the z-score was inactive: 0.0976. Then GGUGUUUCCCAUUAGAACCTT against Borcs5, with inactive: -1.03; and GGACCUUACUAACUUGACCTT against Lrrc9, with inactive: 1.73; and GAUUGGAGUGGUCUCUGCUTT against Mlec, with inactive: 0.0197.

With CCAUUGUUUUCCAGUUCCATT against Dgkeos, the z-score was inactive: 0.494. The figure for GCAGUACCGAGCAGCAGAATT against Acad10 is active: -2.41; for GGAAGACUUUCUGGACAUATT against Sgk2 it is active: 2.44; for GAAACCAGUAGACAAAUACTT against Arv1 it is inactive: -0.215.

As to GGACUUUAAGCCAUUACGATT against Cltb, the z-score was inactive: -0.569. For the sequence GGAAAUCAAGCUGAAGUUATT against Eqtn, the z-score was inactive: 0.231. In the case of GGCGACUGUGCAAUUUCAUTT against Ceacam1, the z-score was inactive: 1.54. The figure for GGACUCAGAUAUCUUUCAGTT against Adck1 is inactive: -0.328. For CGAGCAACCACUGAUCAAGTT against Grap, the z-score was inactive: 0.774. For GGCACACUUGAGAAGACACTT against Cul5, the z-score is inactive: -0.601. The figure for GCUUCGGCAUCGAUCAGAUTT against Tlx2 is inactive: -0.822. Then GCACCUGGAGUACAUAAAATT against Sh2d1a, with inactive: -0.854; and GCCCGAUGACACGAGGAUUTT against Zfp39, with inactive: -1.81. Consider GGAUUUUAUGAACAUUUGCTT against Agk, for which the z-score is inactive: -0.396. Consider GGCCCUUUGACCUCAAGAATT against Myh7, for which the z-score is inactive: -0.38. Then GCUGGGCUUUCCAAGUUACTT against Tomm20, with inactive: 0.669; and GGACAAACUAUGAAAACAGTT against Ube2v2, with inactive: -0.473; and GCUAUGUGUACAGCUGCUGTT against Vmn1r62, with inactive: 0.21.

Regarding GGAAGAAAGAUUCUCACUGTT against Entpd3, the z-score is inactive: -0.554.

With CCAGCAAACUGUUGAUCCCTT against Oit3, the z-score is inactive: 0.341.

Take GGAUUUCAAGGGAAUUUGATT against Wbp4: the z-score is inactive: -0.271. Consider CGUGGGCCUAUGCUUGUCATT against Tsc1, for which the z-score was inactive: 0.32.

Consider GGGCUACAGCAUGUAUGAGTT against Zc3h4, for which the z-score is inactive: 0.814. With CGAUCCCUGUCUGUUGGAUTT against Spint4, the z-score is inactive: 0.944.

GGCCUAGACAUACAUGAAATT against Bnip3l: the z-score is active: 2.93. As to GCUCUUCAAUAAUAUGUCATT against Cdh26, the z-score was inactive: 1.16. Then GGUUUCUUCAUUUGUUUGCTT against Syt2, with inactive: -1.1. For the sequence GGAUUCAGAGAAAGAAAACTT against Azi2, the z-score was inactive: 0.443. For the sequence GCAAGCUUUUUUGAAGCAGTT against Ppil4, the z-score was inactive: 0.544.

Consider GGGAACGCAACAUUUCUCCTT against Oxld1, for which the z-score is active: 2.34.

With GCUGUUCAUUGAGUAUCCCTT against Irf2bpl, the z-score was inactive: -1.62. In the case of GGCACGUGAUAAAGGGUUCTT against Pcdha7, the z-score is active: 2.56. Regarding GGUUAAGGAAAUAUUGUGATT against Gpalpp1, the z-score was inactive: 0.405.

As for GGAUAUCAGUGAUGACCAUTT against Uckl1, the z-score was inactive: 0.256. The figure for GCCUUCACAGAAGAAGCAUTT against Doc2a is inactive: -1.05. Then CGUGGUAGUGAAAAUUGAGTT against Xbp1, with inactive: 0.282; and CCCUAUCAUCAGUUUCCGGTT against Cfap65, with inactive: -0.179; and “GGAUUCAUCAGACAUUAAGTT against 4930503L19Rik”, with inactive: -0.0357. Regarding GGACUGACUGGCUUCAUUGTT against Atl2, the z-score is active: -2.52. Consider GGCUCUGCGCAUCACCAAUTT against Nfasc, for which the z-score is inactive: -1.07. Turning to GGAAACUGAGACAGGCCUUTT against Pgls, the z-score is inactive: -0.258.

As to GGGAGAGAUUCUUCUUCAGTT against Cep68, the z-score was inactive: 0.905.

Consider GGAAAUCCUCAGACAAAUGTT against Pdc, for which the z-score was inactive: 0.93.

On to CCUGAUCAUGUUGAAGGAATT against Ktn1, for which the z-score is inactive: 0.256. Then GGAUAUUUGUCAUUUCCUUTT against Tmcc2, with inactive: -0.819; and GGAGGACUACAGAAAGCCUTT against Olfr1167, with inactive: -1.92.

In the case of GGGACUUUAAGAAAAACUATT against Sparcl1, the z-score is inactive: -0.181. For the sequence GGAGGAUGAUGAGGAGGAUTT against Ppp1r1b, the z-score is active: 2.35. For the sequence “GGAGAAGGUUGCUGUAAAATT against 1700012A03Rik”, the z-score is inactive: 1.8. Then GGCGAUCAGAGUUCAGGUATT against Hps1, with inactive: -0.596; and GCUAAUCCCAACAUGCCUGTT against Pum1, with inactive: -0.498.

With GGGAAUGAGCUUUUGCCUATT against Akr1c18, the z-score was inactive: -0.989. Turning to GCUUGAAUUGUGUAGUAAUTT against B3gntl1, the z-score was inactive: 1.51.

GCUAGUACUAUUACCUGCUTT against Enkd1: the z-score was active: 2.17.

Consider GGGAAGAUGUGAGAAACUGTT against Xpnpep2, for which the z-score was inactive: 0.112.

For CGGUCACACAAAAAACAGATT against Nkapd1, the z-score is inactive: 0.272. The figure for GGGAGGAAGUGUUCUUCUCTT against Psg18 is inactive: -0.212. Regarding GGAACUGGAAAGAGUUCUUTT against Foxo1, the z-score is inactive: 0.165.

On to GGCCACUGACCAUGAAGAATT against Gata2, for which the z-score was inactive: -0.289. On to GGCCUACUUCCUACUCAAATT against Tbx10, for which the z-score is inactive: -1.85. The figure for CGAGCACAGUGACUACUACTT against Micall2 is inactive: -1.18; for GGCUCAUCCAAAAUAGAGGTT against Napa it is inactive: -0.381; for GGCUUCUUCGCUCAGAAAUTT against Dnase2a it is inactive: 0.541. Then GCGGAUCUCUGAUUUAUAUTT against Traf5, with inactive: -1.34; and GGAAGAACUUCAGAAUGCATT against Slirp, with inactive: -0.627; and CCCUUUGCUUAACCUUGCATT against Olfr1258, with inactive: -0.378. The figure for GGCGAUAGACGAGUAUCAGTT against Aida is inactive: 0.41; for GGUGGAUUUAGUUUCUGCATT against C1d it is inactive: 0.264.

With GGUGGAAAGUGCAUAGACATT against Notch3, the z-score is inactive: 0.789. As for GGACAAAUUCCUUCUUUUCTT against Olfr651, the z-score is inactive: -0.36. For GGAAAUUCACACAGAUGAATT against Mtmr12, the z-score was inactive: -1.27.

As for GGAGUUUGUGAAUAAAUGUTT against Map2k2, the z-score was inactive: 0.177. The figure for GGCAUUGACGAGGAUGACCTT against Supt3 is active: 2.74; for GGACGUAGAUUGGUACCUCTT against Emsy it is inactive: -1.18.
